Some of the results follow.
Assays:
Assay in all cases: log2 fold change, soluble protein after heating vs DMSO (PISA); higher = thermal stabilisation; K562 lysate, 10 uM; active = over 0.2 and 3.5 SD of the protein, either way, in both replicates (recomputed)
[1] = compound: NCC(=O)Nc1ccc(-n2nc(C(F)(F)F)cc2-c2ccc3c(ccc4ccccc43)c2)cc1
Procedure, shortened: (§1)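 Dounce homogenisation of K562 pellets in PBS pH 7.4 with 1 mM MgCl2 produced a crude extract, used at 1 mg/mL protein. Exposure to 10 μM compound lasted 30 min, and aliquots were then heated for 3 min across 48°C-58°C, pooled and brought to 0.5% NP-40 at 4°C. The supernatant after 21,000xg for 90 min was quantified by TMTpro 16plex LC-MS/MS with channel sums equalised. Duplicate values are given as log-two fold change in thermal stability relative to solvent controls.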

The chains behind the UniProt entries cited, without tags or fusion partners. Where a name states a change or a piece, a line headed by the entry shows the natural chain unless it says otherwise.
UniProt Q96MP8: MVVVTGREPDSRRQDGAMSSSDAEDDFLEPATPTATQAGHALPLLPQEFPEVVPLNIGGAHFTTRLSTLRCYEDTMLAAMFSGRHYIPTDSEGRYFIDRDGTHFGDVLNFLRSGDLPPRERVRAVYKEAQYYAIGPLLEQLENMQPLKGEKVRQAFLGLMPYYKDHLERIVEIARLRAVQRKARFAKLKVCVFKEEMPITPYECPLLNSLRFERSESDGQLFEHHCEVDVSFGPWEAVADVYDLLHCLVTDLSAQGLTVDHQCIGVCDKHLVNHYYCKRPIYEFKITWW
UniProt Q96AB3: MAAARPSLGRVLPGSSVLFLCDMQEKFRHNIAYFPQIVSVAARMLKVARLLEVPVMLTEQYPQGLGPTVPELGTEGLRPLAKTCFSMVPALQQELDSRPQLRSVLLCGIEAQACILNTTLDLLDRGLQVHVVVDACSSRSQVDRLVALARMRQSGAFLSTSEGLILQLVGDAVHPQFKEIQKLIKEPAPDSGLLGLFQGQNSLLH
UniProt Q9ULR0: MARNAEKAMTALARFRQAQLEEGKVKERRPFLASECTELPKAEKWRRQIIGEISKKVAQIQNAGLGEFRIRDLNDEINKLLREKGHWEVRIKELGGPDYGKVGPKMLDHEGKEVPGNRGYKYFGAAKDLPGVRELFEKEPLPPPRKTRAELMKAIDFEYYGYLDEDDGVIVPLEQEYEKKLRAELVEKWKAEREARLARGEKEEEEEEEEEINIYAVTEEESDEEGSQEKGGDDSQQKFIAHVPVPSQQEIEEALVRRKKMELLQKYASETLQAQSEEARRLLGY
UniProt Q7Z5L9: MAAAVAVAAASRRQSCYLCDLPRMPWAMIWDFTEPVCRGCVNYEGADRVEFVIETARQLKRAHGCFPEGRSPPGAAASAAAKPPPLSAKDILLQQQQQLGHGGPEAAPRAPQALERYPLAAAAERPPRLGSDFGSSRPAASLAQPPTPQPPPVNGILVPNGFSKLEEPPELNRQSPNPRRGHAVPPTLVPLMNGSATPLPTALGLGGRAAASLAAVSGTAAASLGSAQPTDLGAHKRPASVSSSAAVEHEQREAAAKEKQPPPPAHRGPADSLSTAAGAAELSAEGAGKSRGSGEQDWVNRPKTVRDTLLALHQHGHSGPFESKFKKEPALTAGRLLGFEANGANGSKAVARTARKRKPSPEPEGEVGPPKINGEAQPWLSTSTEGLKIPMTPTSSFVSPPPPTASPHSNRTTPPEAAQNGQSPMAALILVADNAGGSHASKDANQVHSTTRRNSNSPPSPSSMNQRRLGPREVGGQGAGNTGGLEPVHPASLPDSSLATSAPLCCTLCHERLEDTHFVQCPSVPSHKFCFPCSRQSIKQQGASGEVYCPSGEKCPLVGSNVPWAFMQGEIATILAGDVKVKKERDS
UniProt Q8NAX2: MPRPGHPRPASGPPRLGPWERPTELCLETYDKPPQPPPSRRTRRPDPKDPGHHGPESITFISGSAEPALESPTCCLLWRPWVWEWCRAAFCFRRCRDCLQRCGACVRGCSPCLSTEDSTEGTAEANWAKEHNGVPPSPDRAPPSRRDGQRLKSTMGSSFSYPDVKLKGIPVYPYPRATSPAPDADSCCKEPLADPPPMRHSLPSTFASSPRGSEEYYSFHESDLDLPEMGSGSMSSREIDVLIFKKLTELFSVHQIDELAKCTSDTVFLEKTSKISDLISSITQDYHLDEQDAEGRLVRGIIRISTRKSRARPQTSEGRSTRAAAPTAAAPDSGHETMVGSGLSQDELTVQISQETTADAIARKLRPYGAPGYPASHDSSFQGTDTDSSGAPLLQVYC
UniProt Q9Y4C1: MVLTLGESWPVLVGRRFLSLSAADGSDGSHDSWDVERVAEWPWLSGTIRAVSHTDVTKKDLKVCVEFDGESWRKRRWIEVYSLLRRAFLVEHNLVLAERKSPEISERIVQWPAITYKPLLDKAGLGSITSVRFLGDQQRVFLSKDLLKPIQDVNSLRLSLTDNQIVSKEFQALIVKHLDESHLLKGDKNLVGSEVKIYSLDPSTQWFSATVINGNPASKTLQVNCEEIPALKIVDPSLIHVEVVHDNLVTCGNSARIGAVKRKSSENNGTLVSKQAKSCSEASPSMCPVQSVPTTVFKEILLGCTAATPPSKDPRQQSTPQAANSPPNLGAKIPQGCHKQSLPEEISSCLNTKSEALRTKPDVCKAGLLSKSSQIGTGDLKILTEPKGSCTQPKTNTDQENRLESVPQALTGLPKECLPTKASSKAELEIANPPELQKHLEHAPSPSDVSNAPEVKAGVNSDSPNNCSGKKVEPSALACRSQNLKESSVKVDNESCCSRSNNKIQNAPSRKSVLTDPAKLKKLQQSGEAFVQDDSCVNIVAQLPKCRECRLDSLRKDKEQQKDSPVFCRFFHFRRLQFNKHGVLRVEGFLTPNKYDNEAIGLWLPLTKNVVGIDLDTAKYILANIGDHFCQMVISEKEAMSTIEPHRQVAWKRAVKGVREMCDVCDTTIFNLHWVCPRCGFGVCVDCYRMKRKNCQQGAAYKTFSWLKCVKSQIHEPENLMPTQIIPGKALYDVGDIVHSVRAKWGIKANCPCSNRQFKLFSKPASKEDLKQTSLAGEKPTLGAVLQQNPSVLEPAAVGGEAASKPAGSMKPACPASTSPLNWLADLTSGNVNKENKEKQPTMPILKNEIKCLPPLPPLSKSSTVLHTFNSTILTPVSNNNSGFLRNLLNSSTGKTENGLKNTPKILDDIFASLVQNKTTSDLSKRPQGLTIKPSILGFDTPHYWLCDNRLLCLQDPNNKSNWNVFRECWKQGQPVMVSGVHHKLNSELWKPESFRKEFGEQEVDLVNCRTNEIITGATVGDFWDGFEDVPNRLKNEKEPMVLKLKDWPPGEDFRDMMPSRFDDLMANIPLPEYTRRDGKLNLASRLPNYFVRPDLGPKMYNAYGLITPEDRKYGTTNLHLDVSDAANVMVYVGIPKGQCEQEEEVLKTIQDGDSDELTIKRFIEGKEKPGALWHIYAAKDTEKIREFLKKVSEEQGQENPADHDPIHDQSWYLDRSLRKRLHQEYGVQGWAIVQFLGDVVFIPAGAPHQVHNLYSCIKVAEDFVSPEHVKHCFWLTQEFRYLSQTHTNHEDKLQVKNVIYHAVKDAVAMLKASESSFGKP
UniProt P08514, whole entry, looked up: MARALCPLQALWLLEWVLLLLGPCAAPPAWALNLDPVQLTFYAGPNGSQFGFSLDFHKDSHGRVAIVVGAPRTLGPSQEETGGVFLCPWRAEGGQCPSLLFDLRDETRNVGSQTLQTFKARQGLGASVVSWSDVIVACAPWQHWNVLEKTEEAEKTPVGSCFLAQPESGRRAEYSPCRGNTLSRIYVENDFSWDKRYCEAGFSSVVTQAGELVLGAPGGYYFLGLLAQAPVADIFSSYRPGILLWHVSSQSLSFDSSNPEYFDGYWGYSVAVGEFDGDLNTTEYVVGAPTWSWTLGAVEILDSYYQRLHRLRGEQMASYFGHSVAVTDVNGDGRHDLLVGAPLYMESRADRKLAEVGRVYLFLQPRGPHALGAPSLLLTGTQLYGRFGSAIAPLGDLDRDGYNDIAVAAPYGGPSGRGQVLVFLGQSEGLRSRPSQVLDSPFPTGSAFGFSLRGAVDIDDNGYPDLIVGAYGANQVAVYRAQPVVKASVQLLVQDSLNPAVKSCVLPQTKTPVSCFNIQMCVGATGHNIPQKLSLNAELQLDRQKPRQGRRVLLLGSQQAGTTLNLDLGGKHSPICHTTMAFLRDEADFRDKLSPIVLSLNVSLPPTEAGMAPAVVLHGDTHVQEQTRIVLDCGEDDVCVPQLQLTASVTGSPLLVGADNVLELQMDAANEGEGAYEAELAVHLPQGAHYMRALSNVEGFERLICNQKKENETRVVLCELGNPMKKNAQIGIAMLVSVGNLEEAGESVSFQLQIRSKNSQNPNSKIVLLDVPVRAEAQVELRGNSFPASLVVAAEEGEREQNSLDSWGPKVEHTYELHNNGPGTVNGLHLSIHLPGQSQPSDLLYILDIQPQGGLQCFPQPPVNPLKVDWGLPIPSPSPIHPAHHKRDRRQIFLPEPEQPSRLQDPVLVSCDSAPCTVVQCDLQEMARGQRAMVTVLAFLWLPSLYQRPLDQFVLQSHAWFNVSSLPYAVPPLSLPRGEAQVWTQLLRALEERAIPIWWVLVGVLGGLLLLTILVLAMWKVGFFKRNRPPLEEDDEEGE
UniProt Q75QN2, whole entry, looked up: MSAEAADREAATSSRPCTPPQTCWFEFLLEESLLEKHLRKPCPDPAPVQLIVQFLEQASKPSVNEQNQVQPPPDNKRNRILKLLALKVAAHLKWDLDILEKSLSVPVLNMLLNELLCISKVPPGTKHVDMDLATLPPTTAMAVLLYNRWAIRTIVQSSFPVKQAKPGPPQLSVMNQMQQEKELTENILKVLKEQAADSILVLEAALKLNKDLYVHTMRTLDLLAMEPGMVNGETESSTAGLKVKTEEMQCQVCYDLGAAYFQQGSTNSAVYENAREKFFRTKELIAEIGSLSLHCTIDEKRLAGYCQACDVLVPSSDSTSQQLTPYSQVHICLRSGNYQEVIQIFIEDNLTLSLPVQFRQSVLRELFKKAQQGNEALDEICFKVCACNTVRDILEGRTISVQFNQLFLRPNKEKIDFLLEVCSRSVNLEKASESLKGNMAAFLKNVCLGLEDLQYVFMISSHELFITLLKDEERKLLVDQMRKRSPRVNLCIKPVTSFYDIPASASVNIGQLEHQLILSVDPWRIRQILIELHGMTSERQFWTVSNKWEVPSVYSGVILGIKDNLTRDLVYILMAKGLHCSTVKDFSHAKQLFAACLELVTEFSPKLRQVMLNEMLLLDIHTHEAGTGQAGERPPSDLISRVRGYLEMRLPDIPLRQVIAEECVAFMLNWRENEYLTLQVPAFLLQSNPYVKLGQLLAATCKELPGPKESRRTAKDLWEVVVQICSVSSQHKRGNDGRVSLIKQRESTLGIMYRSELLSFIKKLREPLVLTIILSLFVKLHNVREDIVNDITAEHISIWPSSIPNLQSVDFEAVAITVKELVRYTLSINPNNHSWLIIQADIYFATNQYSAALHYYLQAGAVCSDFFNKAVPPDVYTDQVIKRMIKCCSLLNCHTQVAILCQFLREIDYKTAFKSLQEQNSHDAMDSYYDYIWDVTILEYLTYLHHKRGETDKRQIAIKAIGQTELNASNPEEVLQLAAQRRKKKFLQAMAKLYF
UniProt O60674: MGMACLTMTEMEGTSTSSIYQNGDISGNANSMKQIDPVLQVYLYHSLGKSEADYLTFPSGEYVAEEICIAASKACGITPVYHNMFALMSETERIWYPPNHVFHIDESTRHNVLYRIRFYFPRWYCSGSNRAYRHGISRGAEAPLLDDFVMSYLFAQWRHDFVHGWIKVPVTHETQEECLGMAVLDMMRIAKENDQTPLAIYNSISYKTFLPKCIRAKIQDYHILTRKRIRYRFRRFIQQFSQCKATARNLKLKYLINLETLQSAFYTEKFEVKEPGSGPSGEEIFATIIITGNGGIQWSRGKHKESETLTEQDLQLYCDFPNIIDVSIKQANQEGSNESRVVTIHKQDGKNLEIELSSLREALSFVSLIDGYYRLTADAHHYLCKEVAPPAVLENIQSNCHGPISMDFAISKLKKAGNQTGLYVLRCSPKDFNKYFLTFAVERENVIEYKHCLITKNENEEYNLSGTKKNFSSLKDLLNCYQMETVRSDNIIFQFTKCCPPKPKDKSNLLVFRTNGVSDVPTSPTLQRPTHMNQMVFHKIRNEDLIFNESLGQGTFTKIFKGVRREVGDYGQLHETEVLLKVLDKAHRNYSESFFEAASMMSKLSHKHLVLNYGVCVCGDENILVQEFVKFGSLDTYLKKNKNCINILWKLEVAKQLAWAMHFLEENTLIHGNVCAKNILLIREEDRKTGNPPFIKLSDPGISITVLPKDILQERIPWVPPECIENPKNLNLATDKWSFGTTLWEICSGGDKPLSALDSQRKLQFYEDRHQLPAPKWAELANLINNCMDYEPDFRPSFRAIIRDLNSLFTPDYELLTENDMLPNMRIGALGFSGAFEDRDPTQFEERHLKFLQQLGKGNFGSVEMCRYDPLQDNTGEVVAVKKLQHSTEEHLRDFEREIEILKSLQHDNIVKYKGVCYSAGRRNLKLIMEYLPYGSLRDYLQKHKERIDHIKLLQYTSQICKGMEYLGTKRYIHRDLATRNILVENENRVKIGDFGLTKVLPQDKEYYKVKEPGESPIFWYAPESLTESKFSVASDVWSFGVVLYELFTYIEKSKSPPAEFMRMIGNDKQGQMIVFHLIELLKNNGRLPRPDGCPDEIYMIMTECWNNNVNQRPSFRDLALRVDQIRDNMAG
UniProt Q9UK76: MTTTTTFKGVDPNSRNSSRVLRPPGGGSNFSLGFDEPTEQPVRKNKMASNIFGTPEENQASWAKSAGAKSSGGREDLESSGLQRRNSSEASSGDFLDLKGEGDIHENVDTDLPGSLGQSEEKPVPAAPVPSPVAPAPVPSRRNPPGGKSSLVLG
UniProt Q8N5M9: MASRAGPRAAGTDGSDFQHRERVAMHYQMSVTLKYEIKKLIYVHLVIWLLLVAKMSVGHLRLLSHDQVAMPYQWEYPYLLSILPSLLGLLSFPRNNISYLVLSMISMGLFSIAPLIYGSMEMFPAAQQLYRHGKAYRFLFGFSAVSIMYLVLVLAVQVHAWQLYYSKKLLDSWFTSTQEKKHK

[2] = compound: O=C(CCCCCCC(=O)Nc1ccccc1)NO [vorinostat]
Procedure, shortened: as §1

[3] = compound: O=C(O)c1ccc2c(c1)nc(Nc1cccc(Cl)c1)c1ccncc12 [silmitasertib]
Procedure, shortened: as §1

[4] = compound: O=C1NC(=O)C(c2cnc3ccccn23)=C1c1cn2c3c(cc(F)cc13)CN(C(=O)N1CCCCC1)CC2
Procedure, shortened: as §1

[5] = compound: c1cn2cc(-c3ccc4cn[nH]c4c3)nc(Nc3ccc(N4CCOCC4)cc3)c2n1 [entospletinib]
Procedure, shortened: as §1

Measured: log2 fold change

KANSL3 (UniProt Q9P2N6)
inactive: [1] 0.175 | [2] -0.056 | [3] 0.053 | [4] 0.099 | [5] -0.065

KATNA1 (UniProt O75449)
inactive: [1] 0.03 | [2] -0.17 | [3] 0.048 | [4] 0.003 | [5] 0.025

KCTD7 (UniProt Q96MP8)
inactive: [1] -0.093 | [2] -0.093 | [3] -0.097 | [4] -0.362 | [5] -0.038

INTS4 (UniProt Q96HW7)
inactive: [1] 0.004 | [2] 0.121 | [3] -0.011 | [4] 0.041 | [5] 0.035

ISOC2 (UniProt Q96AB3)
active: [2] 0.304
inactive: [1] -0.064 | [3] -0.036 | [4] 0 | [5] 0.033

JMJD6 isoform 3 (UniProt Q6NYC1)
inactive: [1] -0.03 | [2] -0.029 | [3] 0.037 | [4] 0.003 | [5] 0.007

IPO7 (UniProt O95373)
inactive: [1] -0.001 | [2] 0.032 | [3] 0.011 | [4] -0.008 | [5] 0.028

IRAK1 (UniProt P51617)
inactive: [1] -0.073 | [3] 0.205 | [4] -0.014 | [5] 0.232
active: [2] -0.359

ISY1 isoform 1 (UniProt Q9ULR0)
inactive: [1] -0.163 | [2] 0.05 | [3] 0.032 | [4] -0.01 | [5] -0.02

KCNK5 (UniProt O95279)
inactive: [1] -0.695 | [2] 0.133 | [3] -0.2 | [4] -0.243

IRF2BP2 (UniProt Q7Z5L9)
inactive: [1] -0.028 | [2] 0.073 | [3] -0.054 | [4] -0.016 | [5] 0.034

ISOC1 (UniProt Q96CN7)
inactive: [1] -0.029 | [2] 0.15 | [3] -0.065 | [4] 0.055 | [5] 0.024

KDM1B (UniProt Q8NB78)
inactive: [1] -0.05 | [2] -0.17 | [3] -0.099 | [4] -0.008 | [5] -0.019

INTU (UniProt Q9ULD6)
inactive: [1] 0.296

ITFG2 (UniProt H0YGR0)
inactive: [1] 0.031

INTS9 (UniProt Q9NV88)
inactive: [1] -0.016 | [2] 0.029 | [3] -0.009 | [4] 0.001 | [5] 0.013

KDF1 (UniProt Q8NAX2)
inactive: [1] -0.059 | [2] -0.122 | [3] 0.064 | [4] -0.081

KDM3A (UniProt Q9Y4C1)
inactive: [1] -0.017 | [2] -0.147 | [3] 0.025 | [4] -0.018 | [5] 0.001

IQUB (UniProt Q8NA54)
inactive: [1] 0.087

KAT6B (UniProt Q8WYB5)
inactive: [1] 0.076 | [2] -0.203 | [3] 0.158 | [4] 0.099 | [5] -0.039

IQGAP2 (UniProt Q13576)
inactive: [1] 0.012 | [2] -0.21 | [3] 0.038 | [4] 0.018 | [5] 0.027

ITGA2B (UniProt P08514)
inactive: [1] 0.131 | [2] 0.128 | [3] 0.017 | [4] -0.106

KBTBD2 (UniProt Q8IY47)
inactive: [1] 0.047 | [2] 0.145 | [3] -0.039 | [4] 0.038 | [5] 0.026

KAT8 (UniProt Q9H7Z6)
inactive: [1] 0.028 | [2] 0.008 | [3] -0.02 | [4] -0.08 | [5] -0.027

IQSEC2 (UniProt Q5JU85)
inactive: [1] -0.031 | [2] -0.228 | [3] -0.007 | [4] 0.008 | [5] -0.108

JMJD1C (UniProt Q15652)
inactive: [1] 0.114 | [2] -0.089 | [3] -0.016 | [4] 0.006 | [5] 0

ITPA (UniProt Q9BY32)
inactive: [1] 0.037 | [2] 0.117 | [3] -0.026 | [4] 0.027 | [5] 0.004

ITGA5 (UniProt P08648)
inactive: [1] 0.024 | [2] 0.102 | [3] -0.011 | [4] -0.01 | [5] -0.021

IQGAP3 (UniProt Q86VI3)
inactive: [1] -0.186 | [2] -0.271 | [3] 0.048 | [4] -0.054

KCTD5 (UniProt Q9NXV2)
inactive: [1] -0.016 | [2] 0.057 | [3] -0.046 | [4] -0.012 | [5] -0.032

KAZN (UniProt Q674X7)
inactive: [1] -0.077 | [2] 0.074 | [3] -0.006 | [4] 0.028 | [5] 0.022

INTS8 (UniProt Q75QN2)
active: [2] -0.401
inactive: [1] -0.012 | [3] 0.071 | [4] -0.016 | [5] 0.054

KAT5 isoform 3 (UniProt Q92993)
inactive: [1] -0.094 | [2] -0.239 | [3] 0.052 | [4] -0.075 | [5] -0.021

ITCH (UniProt Q96J02)
inactive: [1] 0.022 | [2] 0.013 | [3] 0.002 | [4] -0.008 | [5] 0.03

KCT2 (UniProt Q8NC54)
inactive: [1] 0.015 | [2] 0.157 | [3] 0.005 | [4] -0.04 | [5] -0.026

ITM2B (UniProt Q9Y287)
inactive: [1] -0.101 | [2] 0.141 | [3] 0.013 | [4] 0.004

KCNAB2 (UniProt Q13303)
inactive: [1] 0.011 | [2] 0.211 | [3] -0.032 | [4] -0.008 | [5] 0.007

JAK2 (UniProt O60674)
inactive: [1] 0.008 | [2] -0.267 | [3] -0.048

ITPKA (UniProt P23677)
active: [2] -0.36
inactive: [1] 0.033 | [3] 0.09 | [4] -0.101 | [5] 0.081

15 successive records already listed:
INTS4 (UniProt Q96HW7)
inactive: [1] 0.004 | [2] 0.121 | [3] -0.011 | [4] 0.041 | [5] 0.035

ISOC2 (UniProt Q96AB3)
active: [2] 0.304
inactive: [1] -0.064 | [3] -0.036 | [4] 0 | [5] 0.033

JMJD6 isoform 3 (UniProt Q6NYC1)
inactive: [1] -0.03 | [2] -0.029 | [3] 0.037 | [4] 0.003 | [5] 0.007

IPO7 (UniProt O95373)
inactive: [1] -0.001 | [2] 0.032 | [3] 0.011 | [4] -0.008 | [5] 0.028

IRAK1 (UniProt P51617)
inactive: [1] -0.073 | [3] 0.205 | [4] -0.014 | [5] 0.232
active: [2] -0.359

ISY1 isoform 1 (UniProt Q9ULR0)
inactive: [1] -0.163 | [2] 0.05 | [3] 0.032 | [4] -0.01 | [5] -0.02

KCNK5 (UniProt O95279)
inactive: [1] -0.695 | [2] 0.133 | [3] -0.2 | [4] -0.243

IRF2BP2 (UniProt Q7Z5L9)
inactive: [1] -0.028 | [2] 0.073 | [3] -0.054 | [4] -0.016 | [5] 0.034

ISOC1 (UniProt Q96CN7)
inactive: [1] -0.029 | [2] 0.15 | [3] -0.065 | [4] 0.055 | [5] 0.024

KDM1B (UniProt Q8NB78)
inactive: [1] -0.05 | [2] -0.17 | [3] -0.099 | [4] -0.008 | [5] -0.019

INTU (UniProt Q9ULD6)
inactive: [1] 0.296

ITFG2 (UniProt H0YGR0)
inactive: [1] 0.031

INTS9 (UniProt Q9NV88)
inactive: [1] -0.016 | [2] 0.029 | [3] -0.009 | [4] 0.001 | [5] 0.013

KDF1 (UniProt Q8NAX2)
inactive: [1] -0.059 | [2] -0.122 | [3] 0.064 | [4] -0.081

KDM3A (UniProt Q9Y4C1)
inactive: [1] -0.017 | [2] -0.147 | [3] 0.025 | [4] -0.018 | [5] 0.001

Next part

INTS7 (UniProt Q9NVH2)
inactive: [1] 0.017 | [2] -0.149 | [3] -0.011 | [4] 0.189 | [5] 0.03

IPO13 (UniProt O94829)
inactive: [1] -0.044 | [2] -0.179 | [3] 0.016 | [4] -0.02 | [5] -0.005

KCTD3 (UniProt Q9Y597)
inactive: [1] 0.03 | [2] -0.003 | [3] -0.008 | [4] -0.022 | [5] -0.056

INTS2 (UniProt Q9H0H0)
inactive: [1] -0.054 | [2] -0.157 | [3] 0.068 | [4] -0.035 | [5] 0.073

JPT1 (UniProt Q9UK76)
inactive: [1] -0.001 | [2] 0.163 | [3] -0.076 | [4] 0.012 | [5] -0.086

ISCA1 isoform 2 (UniProt Q9BUE6)
inactive: [1] -0.005 | [2] 0.043 | [3] 0.015 | [4] 0.004 | [5] 0.071

JAGN1 (UniProt Q8N5M9)
inactive: [1] -0.056 | [2] 0.135 | [3] -0.068 | [4] 0.074 | [5] -0.051

IQSEC1 (UniProt Q6DN90)
inactive: [1] -0.016 | [2] -0.256 | [3] -0.004 | [4] -0.01 | [5] -0.057

KCTD9 (UniProt Q7L273)
inactive: [1] -0.049 | [2] -0.007 | [3] -0.062 | [4] 0.016 | [5] -0.022

JUND (UniProt P17535)
inactive: [1] 0.132 | [2] 0.009 | [3] -0.005 | [4] 0.015 | [5] 0.037

KATNBL1 (UniProt Q9H079)
inactive: [1] 0.111 | [2] -0.176 | [3] -0.02 | [4] 0.144 | [5] 0.234

ITGAV (UniProt P06756)
inactive: [1] 0.038 | [2] 0.117 | [3] -0.007 | [4] -0.012 | [5] -0.012

ITFG2 (UniProt Q969R8)
inactive: [1] -0.027 | [2] -0.02 | [3] 0.025 | [4] -0.087 | [5] -0.108

INTS6 (UniProt Q9UL03)
inactive: [1] -0.093 | [2] -0.271 | [3] -0.07 | [4] -0.068 | [5] 0.266

IST1 (UniProt P53990)
inactive: [1] -0.002 | [2] 0.025 | [3] 0.003 | [4] -0.03 | [5] -0.02

INTS3 (UniProt Q68E01)
active: [2] -0.244
inactive: [1] 0.049 | [3] 0.015 | [4] -0.063 | [5] 0.009

IPO11 isoform 2 (UniProt Q9UI26)
inactive: [1] 0.001 | [2] -0.127 | [3] -0.02 | [4] -0.018 | [5] -0.002
